Data from PubChem BioAssay AID504444 (National Center for Advancing Translational Sciences (NCATS), 2011).
Hit rate of the full screen: of about 360,000 compounds, about 7,500 (2.1%) were called active. Inconclusive results, whose numbers are uncertain, are shown with a selection of clear calls. The call rests on the fitted dose curve; in most records, active means well fitted inhibition curve with a large enough effect; inconclusive means small, poorly fitted or top-dose-only effect, or effect the other way; inactive means flat fitted curve, though single readings scatter. Potencies beside an inconclusive call are fits to weak or partial responses and may not hold up.

assay: Nrf2 qHTS screen for inhibitors; details: A549 ARE-Fluc reporter, luciferase luminescence, 18-24 h; series mostly up to 46 µM; further: nearly all actives have a fitted effect of over 60% in size
Summary of the method: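 In this cell-based qHTS, ARE-driven firefly luciferase in A549 cells reports Nrf2 activity; the luminescent signal after BugLite lysis is the measured value, with a prior CellTiter-Fluor read for cell health.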
Potency means the concentration at half of the fitted maximal effect.

| Compound | Potency |
| --- | --- |
| COc1ccc(/C=C2\SC(=O)N(CC(=O)Nc3ccc(O)cc3)C2=O)cc1OC | inactive |
| CCN(c1ccccc1)S(=O)(=O)c1nnc(NC(=O)COc2cccc(C)c2)s1 | inconclusive: 29.1 µM [activator, single point] |
| Cn1nnnc1SCC(=O)NCC(=O)c1ccccc1 | inconclusive: 8.2 µM [activator, partial curve, poor fit] |
| O=C(Nc1ccc(Br)cc1)C1CCCN1S(=O)(=O)c1ccc(F)cc1 (stereo not drawn) | inconclusive: 29.1 µM [falling, single point] |
| Cn1c(=O)n(CC(=O)NCC2CCCO2)c(=O)c2c3c(sc21)COC(C)(C)C3 (stereo not drawn) | inactive |
| Cc1ccc(OCC2Cn3c(nc4c3c(=O)[nH]c(=O)n4C)O2)cc1C (stereo not drawn) | inconclusive: 29.1 µM [falling, partial curve, poor fit] |
| CC1CCc2c(sc3nc(CN4CCN(S(=O)(=O)c5ccccc5[N+](=O)[O-])CC4)[nH]c(=O)c23)C1 (stereo not drawn) | inconclusive: 20.6 µM [falling, single point] |
| Cc1cc(NC(=O)CN2C(=O)c3cccnc3Sc3ccccc32)ccc1Br | inconclusive: 29.1 µM [falling, single point] |
| CCc1ccccc1NC(=O)Nc1nnc(N(CC)c2ccccc2)s1 | inconclusive: 32.6 µM [falling, single point] |
| CCN(CC)S(=O)(=O)c1ccc(NC(=O)c2ccc(Sc3nncn3C)c([N+](=O)[O-])c2)cc1 | inconclusive: 29.1 µM [falling, single point] |
| COc1ccccc1C1N=C(c2ccccc2C)NO1 (stereo not drawn) | inconclusive: 16.4 µM [activator, partial curve] |
| Cc1cc(C)nc(NC(=NCCc2c[nH]c3ccccc23)NC(=O)Nc2ccc(Cl)cc2)n1 | inconclusive: 14.6 µM [falling, partial curve, poor fit] |
| Cc1ccc2oc(=O)c(S(=O)(=O)c3ccc(C(C)(C)C)cc3)cc2c1 | inactive |
| Cc1cc(C)cc(-n2c(C)cc(/C=N\NC(=O)COc3cccc4cccnc34)c2C)c1 | inconclusive: 23.1 µM [falling, partial curve, poor fit] |
| COC(=O)Nc1cc(C)nc2ccccc12 | inactive |
| CCOc1ccc(-n2cnnn2)cc1S(=O)(=O)N1CCCCC1 | inconclusive: 29.1 µM [falling, single point] |
| Cc1nc2ccn(Cc3cccnc3)c(=O)c2cc1C(=O)N1CCN(c2ccc(F)cc2)CC1 | inconclusive: 2.06 µM [falling, full curve, poor fit] |
| COc1ccc(-c2nnc(SCc3ccccc3F)o2)cc1OC | inconclusive: 7.31 µM [activator, partial curve, poor fit] |
| COC(=O)c1ccccc1NC(=O)c1cnc2c(-c3cccc(C)c3)c(C)nn2c1C | inconclusive: 29.1 µM [activator, single point] |
| COc1cccc(-c2sc3ccccc3c2-c2ccc(OCCN3CCCCC3)cc2)c1 | inactive |
| Cc1ccc(C)c(N2CCN(C(=O)CCS(=O)(=O)c3ccc4c(c3)NC(=O)CO4)CC2)c1 | active: 8.2 µM |
| O=C(Nc1cccc(-c2nc3ncccc3o2)c1)c1ccccc1 | inconclusive: 4.61 µM [falling, full curve] |

| Compound | Potency |
| --- | --- |
| COc1ccc2oc(-c3ccncc3)cc(=O)c2c1 | inconclusive: 5.17 µM [activator, partial curve, poor fit] |
| CN(C)CCCN(C(=O)c1ccc(S(=O)(=O)N2CCCCCC2)cc1)c1nc2ccc(Br)cc2s1 | active: 25.9 µM |
| Cc1cc(C)cc(Oc2nc3c(C)cccn3c(=O)c2/C=C(\C#N)c2nc3ccccc3s2)c1 | inconclusive: 23.1 µM [falling, single point] |
| CC(C)c1ccc(NC(=O)CSc2nc3ccsc3c(=O)n2Cc2ccc(C(=O)O)cc2)cc1 | inconclusive: 0.231 µM [falling, partial curve, poor fit] |
| COc1ccc(N2CCN(Cc3nnc(-c4cccc(Br)c4)o3)CC2)cc1 | inactive |
| CCn1c(NC(=O)c2ccccc2)nc2ccccc21 | inconclusive: 6.51 µM [activator, partial curve] |
| COc1ccc(NC(=O)CNC(c2ccccc2)c2ccccc2)cc1 | inactive |
| Cc1cc(NC(=O)c2cc(-c3ccccn3)nc3ccccc23)no1 | inactive |
| Cc1ccc(NS(=O)(=O)c2ccc3oc(=O)ccc3c2)cc1Cl | inconclusive: 2.06 µM [falling, partial curve] |
| CN1CCN(S(=O)(=O)c2ccc3ccccc3c2)CC1 | inactive |
| CCOC(=O)c1c(N2C(=O)C3C4C=CC(O4)C3C2=O)sc2c1CCCC2 (stereo not drawn) | inactive |
| CC(=O)c1sc(NC(=O)c2ccccc2F)nc1-c1ccccc1 | inconclusive: 18.4 µM [activator, partial curve] |
| CCOC(=O)Cc1csc(NC(=O)CSc2ncnc3c2cnn3-c2ccccc2Cl)n1 | active: 20.6 µM |
| COc1ccc(-n2cnc3cc(NCc4ccco4)ccc32)cc1 | inconclusive: 3.26 µM [activator, full curve, poor fit] |
| COCCOc1cc(N)c(Cl)cc1Cl | inconclusive: 32.6 µM [activator, partial curve, poor fit] |
| Nc1cccc2cccc([N+](=O)[O-])c12 | inconclusive: 23.1 µM [falling, partial curve, poor fit] |
| COc1ccc(Cl)cc1NC(=O)C1CCN(C(=O)C2CC(=O)N(c3ccc(C)cc3)C2)CC1 (stereo not drawn) | inconclusive: 29.1 µM [falling, partial curve] |
| FC(F)(F)c1ccccc1NC(=S)N1CCCC1 | inactive |
| CCCN1CNc2c(c(=O)[nH]c(=O)n2CCc2ccc(OC)c(OC)c2)C1 | inactive |
| O=C(O)c1cccc(N/N=C/C2=C(Cl)c3cc(Cl)ccc3SC2)c1 | inconclusive: 14.6 µM [activator, partial curve, poor fit] |
| O=C(Nc1ccc(F)cc1)Nc1cc(OCC(F)(F)F)cc(OCC(F)(F)F)c1 | inconclusive: 20.6 µM [falling, single point] |

Quoted at random: 2 records from the list, in no set order.

| Compound | Potency |
| --- | --- |
| COc1ccc(-n2cnc3cc(NCc4ccco4)ccc32)cc1 | inconclusive: 3.26 µM [activator, full curve, poor fit] |
| O=C(O)c1cccc(N/N=C/C2=C(Cl)c3cc(Cl)ccc3SC2)c1 | inconclusive: 14.6 µM [activator, partial curve, poor fit] |
